# Reference: PubChem BioAssay AID504834 (National Center for Advancing Translational Sciences (NCATS), 2011)
# Screen size: about 320,000 compounds; about 22,000 (6.9%) were called active. The shares of active, inactive and inconclusive entries below differ from those in the screen. Calls follow the shape of the dose curve; as a rule, active = well fitted inhibition curve with a large enough effect; inconclusive = small, poorly fitted or top-dose-only effect, or another doubt; inactive = no such curve, though single readings can be large or run the other way. A potency beside an inconclusive call is a rough fit, not a confirmed value.
# Assay: Primary qHTS for delayed death inhibitors of the malarial parasite plastid, 96 hour incubation
# Settings: P. falciparum luciferase reporter growth; series mostly up to 28.7 µM; activity change, negative = inhibition: at the top concentration
# Method in brief: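 P. falciparum expressing integrated firefly luciferase grown in erythrocytes (2% hematocrit, 0.05% parasitemia final) with compounds for 96 hours at 37 C, 5% CO2. Growth inhibition read as loss of luminescence after adding luciferase detection reagent.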
# % is scaled to controls: 0 for no effect and ±100 for the full control effect; potency is read from the fitted curve at half-maximal effect.
Compound,Potency,"activity change, negative = inhibition"
O=C(NC1CC1)c1ccc(C2SCC(=O)N2Cc2ccccc2)cc1 (stereo not given),"inconclusive: 10.4 µM [inhibitor, single point]",–
COc1cccc(C2=NOC(C(=O)NCc3ccccn3)C2)c1 (stereo not given),–,inactive: 54.5%
COc1ccccc1OCCNC(=O)Cc1ccc(S(=O)(=O)N2CCOCC2)s1,–,inactive: 13.7%
COC(=O)c1ccc(S(=O)(=O)N2CCN(C(c3ccccc3)c3ccccc3)CC2)n1C,"inconclusive: 10.4 µM [inhibitor, single point]",–
OCCNc1nc(Nc2ccccc2)nc2ccccc12,–,inactive: 45.7%
Cc1cc(OCC(=O)N(C(C)C)C(C)C)cc(C)c1Br,"inconclusive: 4.65 µM [inhibitor, partial curve, poor fit]",–
Cc1cccc(N2CCN(C(=O)CCn3c(=S)[nH]c4cc5c(cc4c3=O)OCO5)CC2C)c1 (stereo not given),"inconclusive: 16.5 µM [inhibitor, partial curve, poor fit]",–
C/C(=C\c1cccs1)C(=O)c1c(C)cc(C)[nH]c1=O,–,inactive: 32.2%
CN(c1ccc(F)cc1)S(=O)(=O)c1ccc(Cl)c(C(=O)Nc2ccncc2)c1,"inconclusive: 10.4 µM [inhibitor, single point]",–
Cc1ccccc1N1CC(=O)N(c2ccccc2C)CC1=O,–,inactive: -1.47%
CCOC(=O)c1c(-c2ccc(C)o2)csc1NC(=O)CN1CCCCC1,"inconclusive: 0.0657 µM [inhibitor, full curve]",–
C=CCSC1=N/C(=C\c2sccc2C)C(=O)S1,–,inactive: 63.7%
CSc1nc2nccc(/C=C\c3ccccc3)n2n1,"inconclusive: 1.85 µM [inhibitor, full curve, poor fit]",–
Cc1cccc(C)c1-n1c(C)nn(Cc2ccc([N+](=O)[O-])cc2)c1=O,"inconclusive: 3.7 µM [inhibitor, single point]",–
CC(C)(C)OC(=O)[C@H](Cc1ccccc1)NC(=O)c1nc[nH]c1C(=O)NCCCCCN,"inconclusive: 18.5 µM [inhibitor, partial curve, poor fit]",–
CCOC(=O)CNC(=O)COc1coc(CN2CCN(Cc3ccccc3)CC2)cc1=O,"inconclusive: 14.7 µM [inhibitor, single point]",–
CC1CCCC(NC(=O)CNC(=S)N(Cc2ccccc2)Cc2cccs2)C1C (stereo not given),"inconclusive: 10.4 µM [inhibitor, single point]",–
CCOC(=O)C1CCN(C(=O)c2cccc(NC3=NC4CS(=O)(=O)CC4S3)c2)CC1 (stereo not given),"inconclusive: 8.28 µM [inhibitor, partial curve]",–
O=C(CCSCc1ccccc1)Nc1ccc2c(c1)OCCO2,–,inactive: 58.7%
O=C(COC(=O)CCc1c[nH]c2ccccc12)NC(c1ccccc1)c1ccccc1,"inconclusive: 13.1 µM [inhibitor, partial curve, poor fit]",–
COc1ccc(CN2C(=O)CC(=O)NC2=O)cc1,active: 4.15 µM,–
COc1cccc(N/C(SCc2ccccc2F)=C(/C#N)C(=O)NCc2cccs2)c1,"inconclusive: 10.4 µM [inhibitor, single point]",–
COc1cc(C)ccc1OCCCOc1ccccc1Cl,"inconclusive: 18.5 µM [inhibitor, single point]",–
CCCC(=O)NNc1c2ccccc2nc2ccccc12,active: 9.28 µM,–

Compound,Potency,"activity change, negative = inhibition"
COc1cc2nc(CN(CCC(C)C)Cc3nc4cc(OC)c(OC)cc4c(=O)[nH]3)[nH]c(=O)c2cc1OC,"inconclusive: 4.15 µM [inhibitor, single point]",–
CCOC(=O)C1CCN(CC(O)COCc2ccc3c(c2)OCO3)CC1 (stereo not given),–,inactive: 0%
Cc1cccc(C(=O)N[C@@H](C)C(=O)N2CCN(c3ncccn3)CC2)c1,–,inactive: -1.57%
Cc1ccc(S(=O)(=O)N2CC(C(=O)O)Oc3ccccc32)cc1 (stereo not given),–,inactive: -11%
C#CCOCCOCCOCCNc1nc(N2CCN(C(=O)[C@H]([C@@H](C)O)n3cc(CCCCN)nn3)CC2)nc(N2CCN(C(=O)[C@H](CCCCN)n3cc(CCC(=O)O)nn3)CC2)n1,–,inactive: 84.6%
CCOC(=O)c1cnc(Nc2nc3ccccc3o2)nc1CN1CCN(C)CC1,"inconclusive: 4.65 µM [inhibitor, partial curve, poor fit]",–
CCOc1ccc(N2CC(C(=O)NC3CCCCCC3)CC2=O)cc1 (stereo not given),"inconclusive: 4.65 µM [inhibitor, partial curve, poor fit]",–
CCn1c(SCC(=O)Nc2ccccc2C(=O)OC)nnc1-c1ccc(N)cc1,"inconclusive: 18.5 µM [inhibitor, single point]",–
CCOC(=O)C1CCN(S(=O)(=O)c2ccc(C(C)(C)C)cc2)CC1,"inconclusive: 18.5 µM [inhibitor, single point]",–
Cc1nn(C)c(C(=O)Nc2ccc(Cl)c([N+](=O)[O-])c2)c1Cl,–,inactive: 8.68%
CCn1c(C)c(C)c2cc(C(=O)NCCCN3CCCCCC3)ccc21,"inconclusive: 9.28 µM [inhibitor, partial curve, poor fit]",–
CC1(C)C2CCC1(C)C(OCC[N+](C)(C)CC(=O)OC1CCCCC1)C2 (stereo not given),active: 0.522 µM,–
CC1(C)CC(NC(=O)C(C)(C)Oc2ccc(Cl)cc2)CC(C)(C)N1,–,inactive: 29.5%
CN(C)c1cccc(C(=O)OC(C(=O)Nc2ccc(Cl)cc2C(F)(F)F)c2ccccc2)c1 (stereo not given),active: 11.7 µM,–
O=C(CN1C(=O)NC2(CCCC2)C1=O)Nc1ccccc1C(F)(F)F,–,inactive: 4.29%
CC(C)C(NC(=O)/C(=C\c1ccco1)NC(=O)c1ccco1)C(=O)O (stereo not given),"inconclusive: 18.5 µM [inhibitor, single point]",–
Nc1ccc(C(=O)N2CCN(S(=O)(=O)c3ccc(Br)cc3)CC2)cc1[N+](=O)[O-],active: 8.28 µM,–
CCOC(=O)c1c(O)c(Cl)c(C)[nH]c1=O,"inconclusive: 4.15 µM [inhibitor, single point]",–
O=C(COC(=O)c1cncc(Br)c1)NCc1ccco1,"inconclusive: 0.329 µM [inhibitor, full curve, poor fit]",–
CC(C)Sc1ccccc1C(=O)Nc1ccc2c(c1)n(C)c(=O)n2C,"inconclusive: 11.7 µM [inhibitor, single point]",–
CCCNc1c(NC(=O)COc2ccc(Cl)cc2)c(=O)oc2ccccc12,"inconclusive: 10.4 µM [inhibitor, partial curve, poor fit]",–
COc1ccccc1-n1c(C)cc(C=O)c1C,"inconclusive: 18.5 µM [inhibitor, single point]",–
CCOC(=O)Cc1csc(NC(=O)CSc2nnnn2-c2ccc(C)c(C)c2)n1,"inconclusive: 10.4 µM [inhibitor, single point]",–
CC(C)c1ccc(OCC(=O)NCCO)cc1,–,inactive: 13.1%

Compound,Potency,"activity change, negative = inhibition"
COc1ccc([C@H]2CC(=O)C=C(c3ccc4c(c3)OCO4)C2)cc1OC,–,inactive: -12.6%
Cc1oc2c(CN3CCCC3)c(O)ccc2c(=O)c1-c1ccc(Br)cc1,"inconclusive: 3.7 µM [inhibitor, partial curve, poor fit]",–
N#Cc1ccc(C(=O)Nc2nc3ccccc3[nH]2)cc1,–,inactive: 156%
Cc1cccc(C2=N/C(=C/c3cccs3)C(=O)O2)c1,–,inactive: -19.3%
COc1cc(/C=C2\SC(=S)N(CCC(=O)Nc3ccccn3)C2=O)cc(OC)c1OC,"inconclusive: 18.5 µM [inhibitor, single point]",–
COc1ccc(S(=O)(=O)N2CCC(C(=O)Nc3ccccc3C)CC2)c2cccnc12,–,inactive: 132%
COc1cc(C2c3c(oc4ccccc4c3=O)C(=O)N2Cc2ccncc2)ccc1O (stereo not given),"inconclusive: 18.5 µM [inhibitor, single point]",–
Cn1cc[n+](C)c1P(=S)(c1ccccc1)c1ccccc1,"inconclusive: 13.1 µM [inhibitor, single point]",–
Cn1c(=O)c2c(nc(Br)n2C/C=N/NC(N)=S)n(C)c1=O,"inconclusive: 13.1 µM [inhibitor, partial curve, poor fit]",–
Fc1cccc(CNc2ncnc3ccc(-c4cccc(Cl)c4)cc23)c1,active: 2.94 µM,–
C#CCOCCOCCOCCNc1nc(N2CCN(C(=O)C(Cc3ccc(O)cc3)n3cc(C(N)CC(C)C)nn3)CC2)nc(N2CCN(C(=O)C(Cc3cc4ccccc4[nH]3)n3cc(C(N)Cc4ccc(O)cc4)nn3)CC2)n1 (stereo not given),active: 13.1 µM,–
O=C(CN1CCN(c2ccc(O)cc2)CC1)NC(=O)NCc1ccco1,"inconclusive: 18.5 µM [inhibitor, single point]",–
COc1cc(C(C)=O)ccc1OCC(=O)Nc1ccc(Cl)c(S(=O)(=O)N2CCOCC2)c1,active: 2.08 µM,–
CC(=O)N1CC(=O)N(c2ccccc2)C1=O,–,inactive: 16.8%
CN(c1ccccc1)S(=O)(=O)c1ccc(Cl)c(C(=O)Nc2ccncc2)c1,"inconclusive: 9.28 µM [inhibitor, single point]",–
CCOC(=O)[C@@H]1[C@H]2COc3cc(OC)ccc3[C@H]2N2C(=O)N(c3ccc(F)cc3)C(=O)[C@]12C,"inconclusive: 14.7 µM [inhibitor, single point]",–
Cc1c(NC(=S)N/C(=N/S(=O)(=O)c2ccc(Cl)cc2)c2ccccc2)c(=O)n(-c2ccccc2)n1C,–,inactive: -4.47%
COc1ccccc1S(=O)(=O)NCc1ccc(C(=O)NC2CCC(O)CC2)cc1 (stereo not given),"inconclusive: 18.5 µM [inhibitor, single point]",–
COc1ccc(C(=O)N/N=C(/C)c2cccc(NC(=O)C(F)(F)F)c2)cc1,–,inactive: 146%
C=CCC(O)(CC=C)C(C)N (stereo not given),–,inactive: 6.16%
CC(C)C(NC(=O)OCc1ccccc1)C(=O)OCC(=O)NC1CC1 (stereo not given),"inconclusive: 0.0033 µM [inhibitor, full curve, poor fit]",–
CCOC(=O)c1cnc2c(CC)cccc2c1NCCCN1CCOCC1,"inconclusive: 11.7 µM [inhibitor, single point]",–

# Entries listed so far that have a halogen, in the order listed:
Compound,Potency,"activity change, negative = inhibition"
Cc1cc(OCC(=O)N(C(C)C)C(C)C)cc(C)c1Br,"inconclusive: 4.65 µM [inhibitor, partial curve, poor fit]",–
CN(c1ccc(F)cc1)S(=O)(=O)c1ccc(Cl)c(C(=O)Nc2ccncc2)c1,"inconclusive: 10.4 µM [inhibitor, single point]",–
COc1cccc(N/C(SCc2ccccc2F)=C(/C#N)C(=O)NCc2cccs2)c1,"inconclusive: 10.4 µM [inhibitor, single point]",–
COc1cc(C)ccc1OCCCOc1ccccc1Cl,"inconclusive: 18.5 µM [inhibitor, single point]",–
Cc1nn(C)c(C(=O)Nc2ccc(Cl)c([N+](=O)[O-])c2)c1Cl,–,inactive: 8.68%
CC1(C)CC(NC(=O)C(C)(C)Oc2ccc(Cl)cc2)CC(C)(C)N1,–,inactive: 29.5%
CN(C)c1cccc(C(=O)OC(C(=O)Nc2ccc(Cl)cc2C(F)(F)F)c2ccccc2)c1 (stereo not given),active: 11.7 µM,–
O=C(CN1C(=O)NC2(CCCC2)C1=O)Nc1ccccc1C(F)(F)F,–,inactive: 4.29%
Nc1ccc(C(=O)N2CCN(S(=O)(=O)c3ccc(Br)cc3)CC2)cc1[N+](=O)[O-],active: 8.28 µM,–
CCOC(=O)c1c(O)c(Cl)c(C)[nH]c1=O,"inconclusive: 4.15 µM [inhibitor, single point]",–
O=C(COC(=O)c1cncc(Br)c1)NCc1ccco1,"inconclusive: 0.329 µM [inhibitor, full curve, poor fit]",–
CCCNc1c(NC(=O)COc2ccc(Cl)cc2)c(=O)oc2ccccc12,"inconclusive: 10.4 µM [inhibitor, partial curve, poor fit]",–
Cc1oc2c(CN3CCCC3)c(O)ccc2c(=O)c1-c1ccc(Br)cc1,"inconclusive: 3.7 µM [inhibitor, partial curve, poor fit]",–
Cn1c(=O)c2c(nc(Br)n2C/C=N/NC(N)=S)n(C)c1=O,"inconclusive: 13.1 µM [inhibitor, partial curve, poor fit]",–
Fc1cccc(CNc2ncnc3ccc(-c4cccc(Cl)c4)cc23)c1,active: 2.94 µM,–
COc1cc(C(C)=O)ccc1OCC(=O)Nc1ccc(Cl)c(S(=O)(=O)N2CCOCC2)c1,active: 2.08 µM,–
CN(c1ccccc1)S(=O)(=O)c1ccc(Cl)c(C(=O)Nc2ccncc2)c1,"inconclusive: 9.28 µM [inhibitor, single point]",–
CCOC(=O)[C@@H]1[C@H]2COc3cc(OC)ccc3[C@H]2N2C(=O)N(c3ccc(F)cc3)C(=O)[C@]12C,"inconclusive: 14.7 µM [inhibitor, single point]",–
Cc1c(NC(=S)N/C(=N/S(=O)(=O)c2ccc(Cl)cc2)c2ccccc2)c(=O)n(-c2ccccc2)n1C,–,inactive: -4.47%
COc1ccc(C(=O)N/N=C(/C)c2cccc(NC(=O)C(F)(F)F)c2)cc1,–,inactive: 146%
